Paper PMC4568975

Biological target: Protein phosphatase-1 (PP1) (human (endogenous in SH-SY5Y))
Test: co-IP; lysates of SH-SY5Y cells expressing DARPP-32 WT or the T153A mutant, with or without Aβ oligomer (1 μM, 24 h); immunoprecipitation with anti-PP1 antibody followed by Western blot

B1: DARPP-32 WT (dopamine- and cAMP-regulated phosphoprotein 32 kDa) (protein, UniProt Q9UD71 1-204)
chain: MDPKDRKKIQFSVPAPPSQLDPRQVEMIRRRRPTPAMLFRLSEHSSPEEEASPHQRASGEGHHLKSKRPNPCAYTPPSLKAVQRIAESHLQSISNLNENQASEEEDELGELRELGYPREEDEEEEEDDEEEEEEEDSQAEVLKVIRQSAGQKTTCGQGLEGPWERPPPLDESERDGGSEDQVEDPALSEPGEEPQRPSPSEPGT
B1 was tested, and the binding was “binds”.

B2: DARPP-32 T153A mutant (protein, UniProt Q9UD71 1-204)
chain: MDPKDRKKIQFSVPAPPSQLDPRQVEMIRRRRPTPAMLFRLSEHSSPEEEASPHQRASGEGHHLKSKRPNPCAYTPPSLKAVQRIAESHLQSISNLNENQASEEEDELGELRELGYPREEDEEEEEDDEEEEEEEDSQAEVLKVIRQSAGQKATCGQGLEGPWERPPPLDESERDGGSEDQVEDPALSEPGEEPQRPSPSEPGT
For B2, the binding was “binds”.

These are yes or no findings as the source states them, for the method shown. Binding seen in cells or lysates may run through a third protein. Binding can be weak; no strength is given.
